Source: PubChem BioAssay
For part of these data: The hits were mostly taken out for another list; the other results follow. The entries are a selection whose mix differs from that of the whole data set. Calls of active or inactive are those of the source. Unless noted, no stated cut-off is given here; in the data, active means activity change below about -50%; inactive means the rest.

Key:
[1] = A549 cell cytotoxicity, cytotoxicity control, plate reader, single point, cherry-pick (AID 743188; call rule not given here); conditions: at 25 µM
[2] = HepG2 cell cytotoxicity, cytotoxicity control, plate reader, single point, cherry-pick (AID 743189); conditions: at 25 µM, active compounds read low
[3] = HEK293 cell cytotoxicity, cytotoxicity control, plate reader, single point, cherry-pick (AID 743190; in the data active means activity change below about -38%, passing the limit was not always enough); conditions: at 25 µM

O=c1ccc2ccc(OCc3ccccc3)cc2o1
inactive: cell viability change % (negative = cytotoxic) [1] -5.75% | activity change, negative = inhibition [2] -19.5% | activity change, negative = inhibition [3] -7%
